Test results reported in patent US20240125775A1, “IMMOBILIZATION AND MAGNETIC EXTRACTION OF PATHOGENS AND PATHOGEN COMPONENTS” (priority 2020, published 2024).
Square brackets hold non-standard residues; d marks the D form. Ends that are not written are not given here. pS = N[C@@H](COP(=O)(O)O)C(=O)O

Assay: Binding of peptide to particles (UV absorption at 280 nm)
Type: physicochemical
Details: for peptide content after improved functionalization: SBA educt fourfold, reaction time doubled; for increase in peptide binding: compared to Karawacka et al. (2018)

Substance	peptide content after improved functionalization	increase in peptide binding [%]	peptide bound to SPION^HAp via C-terminal phosphoserine (borate buffer pH 8.5, 24h, 700 rpm, 25° C.) [μmol/mg Fe]
RKQGRVEILYRGSWGTVC [SPP19]	0.082 μmol peptides/mg Fe	42	–
RKQGRVEVLYRASWGTVC [SPP04]	over 0.085 μmol peptides/mg Fe	37	–
RKQGRVEVLYRASWGTV[pS] [SPPpS]	–	–	0.03
